Test results as given in article PMC6420597, “The MurG glycosyltransferase provides an oligomeric scaffold for the cytoplasmic steps of peptidoglycan biosynthesis in the human pathogen Bordetella pertussis” (Scientific Reports, 2019).
Results are given in words; binding and its absence hold for the method and conditions named. A result given as binding can be weak or reduced; the word gives no strength. Where a sequence is shown, tags or fusion partners need not be part of it.

Key:
[1] = target: T1, MurG glycosyltransferase from Bordetella pertussis, N-terminal Strep-tagged (Bordetella pertussis (strain ATCC 9797/DSM No 5571)) (UniProt Q7VUQ3); test: far-Western, overlay or dot blot; dot blot: MurG purified in 1.2 x CMC DDM (dimeric) spotted on nitrocellulose, 50 ng to 1 μg; incubated overnight at 4 °C with 0.1 mg/mL MurE-MurF in PBS-T; detected with anti-MurE-MurF antibodies; both purified
T1 sequence: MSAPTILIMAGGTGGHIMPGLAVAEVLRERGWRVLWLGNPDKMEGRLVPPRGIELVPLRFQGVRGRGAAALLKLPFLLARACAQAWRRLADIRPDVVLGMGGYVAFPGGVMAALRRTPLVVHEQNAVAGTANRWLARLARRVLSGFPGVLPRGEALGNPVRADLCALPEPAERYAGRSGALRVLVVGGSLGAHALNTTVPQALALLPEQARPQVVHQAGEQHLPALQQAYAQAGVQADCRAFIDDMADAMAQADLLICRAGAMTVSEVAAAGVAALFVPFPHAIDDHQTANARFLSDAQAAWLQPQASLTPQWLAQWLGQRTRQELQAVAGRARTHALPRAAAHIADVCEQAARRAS

[2] = target: T1, MurG glycosyltransferase from Bordetella pertussis, N-terminal Strep-tagged (Bordetella pertussis (strain ATCC 9797/DSM No 5571)); test: far-Western, overlay or dot blot; dot blot: MurG purified without detergent (oligomeric) spotted on nitrocellulose, 50 ng to 1 μg; incubated overnight at 4 °C with 0.1 mg/mL MurE-MurF in PBS-T; detected with anti-MurE-MurF antibodies; both purified

- binding [1]: binds
- binding [2]: binds
Substance: MurE-MurF bifunctional fusion protein from Bordetella pertussis, His-tagged (enzyme)
